These results are taken from publication PMC9616507.

Sequences of proteins named here, by UniProt entry; tags and fusion partners are left off.
UniProt Q8BQZ5: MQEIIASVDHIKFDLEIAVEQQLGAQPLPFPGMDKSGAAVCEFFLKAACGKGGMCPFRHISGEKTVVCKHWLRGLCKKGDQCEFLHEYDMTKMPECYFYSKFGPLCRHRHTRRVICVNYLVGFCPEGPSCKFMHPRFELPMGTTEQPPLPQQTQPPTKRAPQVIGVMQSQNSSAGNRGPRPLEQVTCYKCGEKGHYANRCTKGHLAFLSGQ

One test has as its target T1, PABPN1 (UniProt Q86U42).
T1 sequence: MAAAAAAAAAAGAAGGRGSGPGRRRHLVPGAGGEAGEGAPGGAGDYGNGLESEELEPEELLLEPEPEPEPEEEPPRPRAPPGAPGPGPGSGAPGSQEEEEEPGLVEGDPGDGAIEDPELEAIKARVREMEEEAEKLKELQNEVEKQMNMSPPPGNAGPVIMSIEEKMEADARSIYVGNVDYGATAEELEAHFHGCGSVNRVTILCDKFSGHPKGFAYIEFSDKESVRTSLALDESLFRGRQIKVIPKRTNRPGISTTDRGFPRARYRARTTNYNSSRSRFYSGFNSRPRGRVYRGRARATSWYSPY
As to the kind of experiment: co-IP; interaction reported as independent of mRNA / RNA-independent; cells, tags, bait and RNase treatment not told in the text shown.

A further test deals with T2, PABPN1, Q86U42.
T2 chain: T1 sequence
Described as above. As to conditions: remark: other sources report otherwise.

No constants are given. Whether binding was seen depends on the method and setting. In cells and extracts the contact can be indirect. Some results given as binding are weak or reduced against the parent protein; the word gives no strength.

On to CPSF4 (from UniProt Q8BQZ5 1-211), for which the binding entry with PABPN1 is given as “binds”.

B1: PABPN1, Q86U42 1-306 (protein)
chain: T1 sequence
Turning to B1, the binding entry with PABPN1, Q86U42 is “binds”.
